Here are results for three molecules from paper PMC12668627.

Amino acid sequences for entries named in this document (tags omitted).
UniProt Q13485: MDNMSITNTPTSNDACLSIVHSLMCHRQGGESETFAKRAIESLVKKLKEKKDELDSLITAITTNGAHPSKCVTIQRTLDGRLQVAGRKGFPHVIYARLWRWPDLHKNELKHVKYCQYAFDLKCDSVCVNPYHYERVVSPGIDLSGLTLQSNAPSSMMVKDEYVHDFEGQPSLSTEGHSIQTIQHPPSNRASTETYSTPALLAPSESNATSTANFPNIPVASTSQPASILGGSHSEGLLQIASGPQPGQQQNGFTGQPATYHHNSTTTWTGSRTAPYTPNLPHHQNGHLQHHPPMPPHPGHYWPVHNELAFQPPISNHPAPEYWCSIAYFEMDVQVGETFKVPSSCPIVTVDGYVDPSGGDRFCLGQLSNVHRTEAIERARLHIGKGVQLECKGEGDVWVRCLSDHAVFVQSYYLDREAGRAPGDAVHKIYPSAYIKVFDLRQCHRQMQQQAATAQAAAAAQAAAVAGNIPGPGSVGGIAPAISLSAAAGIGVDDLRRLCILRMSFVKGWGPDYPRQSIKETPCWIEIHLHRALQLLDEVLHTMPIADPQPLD
UniProt P35222: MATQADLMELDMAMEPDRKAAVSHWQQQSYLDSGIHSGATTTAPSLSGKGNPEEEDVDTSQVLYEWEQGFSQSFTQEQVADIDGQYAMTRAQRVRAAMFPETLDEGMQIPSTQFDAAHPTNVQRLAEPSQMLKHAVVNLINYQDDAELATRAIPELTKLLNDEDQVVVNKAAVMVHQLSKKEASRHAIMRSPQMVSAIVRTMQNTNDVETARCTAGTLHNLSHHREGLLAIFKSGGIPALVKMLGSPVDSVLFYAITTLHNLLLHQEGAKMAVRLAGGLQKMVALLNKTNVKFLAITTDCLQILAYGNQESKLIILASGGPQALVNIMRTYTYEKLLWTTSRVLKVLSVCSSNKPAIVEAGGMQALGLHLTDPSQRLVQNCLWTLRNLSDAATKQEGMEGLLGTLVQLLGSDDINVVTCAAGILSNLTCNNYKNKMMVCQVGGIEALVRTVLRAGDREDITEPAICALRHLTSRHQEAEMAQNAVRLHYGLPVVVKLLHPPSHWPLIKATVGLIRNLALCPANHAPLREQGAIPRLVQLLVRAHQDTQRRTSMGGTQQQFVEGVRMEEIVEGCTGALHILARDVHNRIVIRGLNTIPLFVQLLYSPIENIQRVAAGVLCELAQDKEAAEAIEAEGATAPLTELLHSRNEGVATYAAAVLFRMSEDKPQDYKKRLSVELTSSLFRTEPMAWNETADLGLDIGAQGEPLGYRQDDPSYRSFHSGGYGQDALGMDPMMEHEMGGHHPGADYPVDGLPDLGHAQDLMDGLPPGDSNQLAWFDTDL
UniProt P84022: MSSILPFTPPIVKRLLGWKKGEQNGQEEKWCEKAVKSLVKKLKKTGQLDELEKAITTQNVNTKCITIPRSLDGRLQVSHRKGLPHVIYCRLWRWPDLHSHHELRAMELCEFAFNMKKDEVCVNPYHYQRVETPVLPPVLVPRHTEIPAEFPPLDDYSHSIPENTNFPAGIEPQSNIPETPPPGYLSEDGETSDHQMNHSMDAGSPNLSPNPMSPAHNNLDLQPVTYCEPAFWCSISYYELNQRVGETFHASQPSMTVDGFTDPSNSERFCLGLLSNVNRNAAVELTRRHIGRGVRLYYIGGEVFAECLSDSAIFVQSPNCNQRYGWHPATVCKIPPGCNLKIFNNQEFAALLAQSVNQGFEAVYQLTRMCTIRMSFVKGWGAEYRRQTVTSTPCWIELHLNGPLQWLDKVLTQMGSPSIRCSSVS
UniProt Q93009: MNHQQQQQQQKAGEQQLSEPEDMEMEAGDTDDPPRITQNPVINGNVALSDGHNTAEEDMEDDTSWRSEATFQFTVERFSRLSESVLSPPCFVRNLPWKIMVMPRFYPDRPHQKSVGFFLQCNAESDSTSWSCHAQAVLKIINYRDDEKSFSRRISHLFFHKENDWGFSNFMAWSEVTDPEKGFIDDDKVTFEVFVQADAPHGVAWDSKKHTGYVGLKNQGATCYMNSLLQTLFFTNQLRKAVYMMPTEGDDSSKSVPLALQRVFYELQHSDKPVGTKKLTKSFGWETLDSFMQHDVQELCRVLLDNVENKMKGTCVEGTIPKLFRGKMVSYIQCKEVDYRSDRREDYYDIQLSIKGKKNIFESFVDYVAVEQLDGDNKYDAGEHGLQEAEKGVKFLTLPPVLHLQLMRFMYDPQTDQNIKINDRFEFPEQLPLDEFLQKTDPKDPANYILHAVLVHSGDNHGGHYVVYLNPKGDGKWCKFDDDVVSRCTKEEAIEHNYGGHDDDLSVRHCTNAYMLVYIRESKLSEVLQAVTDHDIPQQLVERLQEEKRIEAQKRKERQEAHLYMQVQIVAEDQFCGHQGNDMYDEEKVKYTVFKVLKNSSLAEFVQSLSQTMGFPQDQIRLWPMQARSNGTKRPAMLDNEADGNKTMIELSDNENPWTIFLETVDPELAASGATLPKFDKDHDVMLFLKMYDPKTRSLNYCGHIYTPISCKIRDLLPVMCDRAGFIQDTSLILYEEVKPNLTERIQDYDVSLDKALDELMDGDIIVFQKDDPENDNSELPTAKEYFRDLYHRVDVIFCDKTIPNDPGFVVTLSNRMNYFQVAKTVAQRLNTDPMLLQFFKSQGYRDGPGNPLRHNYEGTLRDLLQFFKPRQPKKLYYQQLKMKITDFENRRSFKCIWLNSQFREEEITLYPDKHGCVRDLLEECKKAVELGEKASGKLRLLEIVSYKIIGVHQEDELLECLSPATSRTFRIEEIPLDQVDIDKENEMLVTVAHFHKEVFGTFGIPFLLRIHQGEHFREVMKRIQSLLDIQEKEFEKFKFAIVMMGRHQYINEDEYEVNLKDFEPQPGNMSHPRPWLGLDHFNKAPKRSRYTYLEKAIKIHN

Read-outs that look alike come from different tables or passages of the source. These are yes or no findings as the source states them, for the method shown. Binding seen in cells or lysates may run through a third protein. Some binding calls cover weakened binding; strength is not graded here. For part of these data: Sequences can lack the tags named with a protein.

Assay in all cases: co-IP; HEK293T cells transfected with plasmids for Flag-fused proteins, RIPA lysate, anti-Flag affinity beads 4 °C 2 hours or overnight, immunoblot; HA-TbC or GFP-Flag as controls; TRIM33 with β-catenin also with or without Wnt3a stimulation
The target of test [1] is SMAD4 (construct of the Flag-IP) (UniProt Q13485).
Test [2] shares this target. This is another data set of the same source.
Test [3] deals with β-catenin (construct of the Flag-IP) (human) (UniProt P35222).
For test [4], the target named is SMAD3 (construct of the Flag-IP) (UniProt P84022).

On to “USP7 (expression construct of the Flag-IP) (from UniProt Q93009 1-1102)”, for which the binding result in test [1] is listed as “binds”.

B1: TRIM33 (expression construct) (protein, UniProt Q9UPN9 1-1127)
chain: MAENKGGGEAESGGGGSGSAPVTAGAAGPAAQEAEPPLTAVLVEEEEEEGGRAGAEGGAAGPDDGGVAAASSGSAQAASSPAASVGTGVAGGAVSTPAPAPASAPAPGPSAGPPPGPPASLLDTCAVCQQSLQSRREAEPKLLPCLHSFCLRCLPEPERQLSVPIPGGSNGDIQQVGVIRCPVCRQECRQIDLVDNYFVKDTSEAPSSSDEKSEQVCTSCEDNASAVGFCVECGEWLCKTCIEAHQRVKFTKDHLIRKKEDVSESVGASGQRPVFCPVHKQEQLKLFCETCDRLTCRDCQLLEHKEHRYQFLEEAFQNQKGAIENLLAKLLEKKNYVHFAATQVQNRIKEVNETNKRVEQEIKVAIFTLINEINKKGKSLLQQLENVTKERQMKLLQQQNDITGLSRQVKHVMNFTNWAIASGSSTALLYSKRLITFQLRHILKARCDPVPAANGAIRFHCDPTFWAKNVVNLGNLVIESKPAPGYTPNVVVGQVPPGTNHISKTPGQINLAQLRLQHMQQQVYAQKHQQLQQMRMQQPPAPVPTTTTTTQQHPRQAAPQMLQQQPPRLISVQTMQRGNMNCGAFQAHQMRLAQNAARIPGIPRHSGPQYSMMQPHLQRQHSNPGHAGPFPVVSVHNTTINPTSPTTATMANANRGPTSPSVTAIELIPSVTNPENLPSLPDIPPIQLEDAGSSSLDNLLSRYISGSHLPPQPTSTMNPSPGPSALSPGSSGLSNSHTPVRPPSTSSTGSRGSCGSSGRTAEKTSLSFKSDQVKVKQEPGTEDEICSFSGGVKQEKTEDGRRSACMLSSPESSLTPPLSTNLHLESELDALASLENHVKIEPADMNESCKQSGLSSLVNGKSPIRSLMHRSARIGGDGNNKDDDPNEDWCAVCQNGGDLLCCEKCPKVFHLTCHVPTLLSFPSGDWICTFCRDIGKPEVEYDCDNLQHSKKGKTAQGLSPVDQRKCERLLLYLYCHELSIEFQEPVPASIPNYYKIIKKPMDLSTVKKKLQKKHSQHYQIPDDFVADVRLIFKNCERFNEMMKVVQVYADTQEINLKADSEVAQAGKAVALYFEDKLTEIYSDRTFAPLPEFEQEEDDGEVTEDSDEDFIQPRRKRLKSDERPVHIK
Turning to B1, the binding result is “binds weakly” in test [2], “binds” in test [3] and “binds” in test [4].

B2: ERC1 (expression construct of the Flag-IP) (protein, UniProt Q8IUD2 1-1116)
chain: MYGSARSVGKVEPSSQSPGRSPRLPRSPRLGHRRTNSTGGSSGSSVGGGSGKTLSMENIQSLNAAYATSGPMYLSDHENVGSETPKSTMTLGRSGGRLPYGVRMTAMGSSPNIASSGVASDTIAFGEHHLPPVSMASTVPHSLRQARDNTIMDLQTQLKEVLRENDLLRKDVEVKESKLSSSMNSIKTFWSPELKKERALRKDEASKITIWKEQYRVVQEENQHMQMTIQALQDELRIQRDLNQLFQQDSSSRTGEPCVAELTEENFQRLHAEHERQAKELFLLRKTLEEMELRIETQKQTLNARDESIKKLLEMLQSKGLSAKATEEDHERTRRLAEAEMHVHHLESLLEQKEKENSMLREEMHRRFENAPDSAKTKALQTVIEMKDSKISSMERGLRDLEEEIQMLKSNGALSTEEREEEMKQMEVYRSHSKFMKNKVEQLKEELSSKEAQWEELKKKAAGLQAEIGQVKQELSRKDTELLALQTKLETLTNQFSDSKQHIEVLKESLTAKEQRAAILQTEVDALRLRLEEKETMLNKKTKQIQDMAEEKGTQAGEIHDLKDMLDVKERKVNVLQKKIENLQEQLRDKEKQMSSLKERVKSLQADTTNTDTALTTLEEALAEKERTIERLKEQRDRDEREKQEEIDNYKKDLKDLKEKVSLLQGDLSEKEASLLDLKEHASSLASSGLKKDSRLKTLEIALEQKKEECLKMESQLKKAHEAALEARASPEMSDRIQHLEREITRYKDESSKAQAEVDRLLEILKEVENEKNDKDKKIAELERQVKDQNKKVANLKHKEQVEKKKSAQMLEEARRREDNLNDSSQQLQDSLRKKDDRIEELEEALRESVQITAEREMVLAQEESARTNAEKQVEELLMAMEKVKQELESMKAKLSSTQQSLAEKETHLTNLRAERRKHLEEVLEMKQEALLAAISEKDANIALLELSSSKKKTQEEVAALKREKDRLVQQLKQQTQNRMKLMADNYEDDHFKSSHSNQTNHKPSPDQIIQPLLELDQNRSKLKLYIGHLTTLCHDRDPLILRGLTPPASYNLDDDQAAWENELQKMTRGQLQDELEKGERDNAELQEFANAILQQIADHCPDILEQVVNALEESS
Regarding B2, the binding result in test [2] and in test [3] was “binds” throughout.
